Small differences around the control level are noise.
Key:
Test in all cases: normalised response (% of control), CellTox Green; higher = less cell death (100 = DMSO, 0 = benzethonium chloride kill control)
Settings in all cases: incubation time: 72 h
HCC1599 [1] = test system: HCC1599
Method: (§1)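 DSRT, 72 h incubation, CellTox Green / CellTiter-Glo readout. Signal is normalised to DMSO and benzethonium chloride controls. Value is the normalised response at the lowest tested concentration.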

MCF-10A = test system: MCF-10A
Method: as §1

BT-474 [2] = test system: BT-474
Method: as §1

HCC1143 [3] = test system: HCC1143
Method: as §1

MDA-MB-436 [4] = test system: MDA-MB-436
Method: as §1

MFM-223 [5] = test system: MFM-223
Method: as §1

CAL-51 [6] = test system: CAL-51
Method: as §1

DU-4475 [7] = test system: DU-4475
Method: as §1

MDA-MB-453 [8] = test system: MDA-MB-453
Method: as §1

BT-549 [9] = test system: BT-549
Method: as §1

CAL-120 [10] = test system: CAL-120
Method: as §1

CAL-85-1 [11] = test system: CAL-85-1
Method: as §1

CAL-148 [12] = test system: CAL-148
Method: as §1

MDA-MB-468 [13] = test system: MDA-MB-468
Method: as §1

Hs578T [14] = test system: Hs578T
Method: as §1

MDA-MB-231 [15] = test system: MDA-MB-231
Method: as §1

HDQ-P1 = test system: HDQ-P1
Method: as §1

HCC1599 [16] = test system: HCC1599; remark: listed apart in the source
Method: (§2)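 DSRT, 72 h incubation, CellTox Green / CellTiter-Glo readout. Signal is normalised to DMSO and benzethonium chloride controls. Value is the normalised response at dose 2.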

BT-474 [17] = test system: BT-474; remark: listed apart in the source
Method: as §2

MDA-MB-436 [18] = test system: MDA-MB-436; remark: listed apart in the source
Method: as §2

MFM-223 [19] = test system: MFM-223; remark: listed apart in the source
Method: as §2

CAL-51 [20] = test system: CAL-51; remark: listed apart in the source
Method: as §2

DU-4475 [21] = test system: DU-4475; remark: listed apart in the source
Method: as §2

MDA-MB-453 [22] = test system: MDA-MB-453; remark: listed apart in the source
Method: as §2

BT-549 [23] = test system: BT-549; remark: listed apart in the source
Method: as §2

CAL-120 [24] = test system: CAL-120; remark: listed apart in the source
Method: as §2

CAL-85-1 [25] = test system: CAL-85-1; remark: listed apart in the source
Method: as §2

CAL-148 [26] = test system: CAL-148; remark: listed apart in the source
Method: as §2

Hs578T [27] = test system: Hs578T; remark: listed apart in the source
Method: as §2

MDA-MB-231 [28] = test system: MDA-MB-231; remark: listed apart in the source
Method: as §2

HCC1937 = test system: HCC1937
Method: as §2

HCC1143 [29] = test system: HCC1143; remark: listed apart in the source
Method: as §2

MDA-MB-468 [30] = test system: MDA-MB-468; remark: listed apart in the source
Method: as §2

Compound | normalised response (HCC1599 [1]) | normalised response (MCF-10A) | normalised response (BT-474 [2]) | normalised response (HCC1143 [3]) | normalised response (MDA-MB-436 [4]) | normalised response (MFM-223 [5]) | normalised response (CAL-51 [6]) | normalised response (DU-4475 [7]) | normalised response (MDA-MB-453 [8]) | normalised response (BT-549 [9]) | normalised response (CAL-120 [10]) | normalised response (CAL-85-1 [11]) | normalised response (CAL-148 [12]) | normalised response (MDA-MB-468 [13]) | normalised response (Hs578T [14]) | normalised response (MDA-MB-231 [15]) | normalised response (HDQ-P1) | normalised response (HCC1599 [16]) | normalised response (BT-474 [17]) | normalised response (MDA-MB-436 [18]) | normalised response (MFM-223 [19]) | normalised response (CAL-51 [20]) | normalised response (DU-4475 [21]) | normalised response (MDA-MB-453 [22]) | normalised response (BT-549 [23]) | normalised response (CAL-120 [24]) | normalised response (CAL-85-1 [25]) | normalised response (CAL-148 [26]) | normalised response (Hs578T [27]) | normalised response (MDA-MB-231 [28]) | normalised response (HCC1937) | normalised response (HCC1143 [29]) | normalised response (MDA-MB-468 [30])
CCc1cncnc1N1CCN(Cc2nc3ccc(C(F)(F)F)cc3[nH]2)CC1 (1 nM) | 97.7% | 101% | 101% | 125% | 80.7% | 101% | 130% | 100% | 111% | 89.5% | 103% | 101% | 90.8% | 96.4% | 114% | 95.1% |  |  |  |  |  |  |  |  |  |  |  |  |  |  |  |  | 
CN(c1ccccc1CNc1nc(Nc2ccc3c(c2)CC(=O)N3)ncc1C(F)(F)F)S(C)(=O)=O (1 nM) | 99.5% |  | 97.2% | 62.3% | 96.8% | 103% | 98.1% | 98% | 99% | 86% | 95.5% | 95.8% | 92.3% | 123% | 75% |  | 105% |  |  |  |  |  |  |  |  |  |  |  |  |  |  |  | 
CCc1cncnc1N1CCN(Cc2nc3ccc(C(F)(F)F)cc3[nH]2)CC1 (10 nM) |  |  |  |  |  |  |  |  |  |  |  |  |  |  |  |  |  | 111% | 101% | 81.3% | 104% | 108% | 106% | 73.2% | 97.9% | 105% | 94.4% | 106% | 56.6% | 105% | 103% |  | 
O=C(O)C1(C(=O)O)CCC1.[NH2-].[NH2-].[Pt+2] [Carboplatin] (1 nM) | 115% | 108% | 97.7% | 125% | 76.7% | 102% | 115% | 111% | 101% | 96.2% | 106% | 105% | 99.1% | 76.2% | 110% | 108% | 104% |  |  |  |  |  |  |  |  |  |  |  |  |  |  |  | 
Nc1ccn([C@@H]2O[C@H](CO)[C@@H](O)[C@@H]2O)c(=O)n1 [Cytarabine] (10 nM) |  |  |  |  |  |  |  |  |  |  |  |  |  |  |  |  |  | 112% | 104% | 107% | 107% | 101% | 105% | 102% | 107% | 106% | 103% | 112% | 128% | 125% | 87.8% | 105% | 122%
CO[C@@]12[C@H](COC(N)=O)C3=C(C(=O)C(C)=C(N)C3=O)N1C[C@@H]1N[C@@H]12 [Mitomycin C] (1 nM) | 81.2% | 72% | 92.7% | 100% | 99.4% | 100% | 101% | 94.2% | 101% | 92.7% | 99.1% | 108% | 93.3% |  | 62.6% | 96.6% | 85.7% |  |  |  |  |  |  |  |  |  |  |  |  |  |  |  | 
CCNC(=O)c1noc(-c2cc(C(C)C)c(O)cc2O)c1-c1ccc(CN2CCOCC2)cc1 [NVP-AUY922] (0.1 nM) | 93.8% | 105% | 100% | 106% | 72.3% | 76.6% | 115% | 99% | 106% | 87.2% | 99.9% | 101% | 107% | 97.2% | 111% | 103% | 88.3% |  |  |  |  |  |  |  |  |  |  |  |  |  |  |  | 
Nc1nc2[nH]cc(CCc3ccc(C(=O)N[C@@H](CCC(=O)O)C(=O)O)cc3)c2c(=O)[nH]1 [Pemetrexed] (1 nM) | 105% |  | 95.5% | 110% | 68.5% | 104% | 95.8% | 99.2% | 96.8% | 93% | 97.9% | 97.2% | 103% | 70.1% | 104% | 101% | 99.8% |  |  |  |  |  |  |  |  |  |  |  |  |  |  |  | 
COCC1(CO)C(=O)C2CCN1CC2 (configuration not stated) [Prima-1 Met] (1 nM) | 95.9% | 96.8% | 103% | 76% |  | 102% | 117% | 96.6% | 111% | 98.1% | 98.3% | 95.4% | 105% | 101% | 90.2% | 99.7% | 93.2% |  |  |  |  |  |  |  |  |  |  |  |  |  |  |  | 
Cn1cnc2c(F)c(Nc3ccc(Br)cc3Cl)c(C(=O)NOCCO)cc21 [Selumetinib] (1 nM) |  | 90.3% | 98.7% | 80.4% |  |  | 109% | 93.3% | 96.1% | 94.7% | 96.1% | 104% | 100% | 71.2% | 85.4% | 92.5% | 56.3% |  |  |  |  |  |  |  |  |  |  |  |  |  |  |  | 
